Among the data in publication PMC12370185 are binding signal (log2 relative supershift) values, retold here.

Common to all, as to details: 10 mM Tris-Cl pH 7.5, 50 mM NaCl, 1 mM DTT, 0.25 mg/ml BSA, 2 mM MgCl2, 0.025% Nonidet P-40, 5% glycerol; 28 nM nucleosome library; 10 min on ice then 30 min …; high values mean tight binding; double strand, one strand shown
For experiment [1], the system named is KLF4 + histone octamer. The experiment in a line: EMSA with sequencing. On the technique in general: In EMSA bound probe runs differently from free probe, usually more slowly.
The test system of experiment [2] is OCT4 + histone octamer. Nature of the experiment: EMSA with sequencing.
Experiment [3] deals with SOX2 + histone octamer. The experiment in a line: EMSA with sequencing.
In experiment [4] the test system is c-MYC + MAX + histone octamer. The experiment in a line: Pioneer-seq (competitive nucleosome EMSA with sequencing).
For experiment [5], the system named is SOX2 + histone octamer. Described as above.
Experiment [6] deals with c-MYC + MAX + histone octamer. Nature of the experiment: EMSA with sequencing.
Experiment [7] deals with OCT4 + histone octamer. The experiment in a line: Pioneer-seq (competitive nucleosome EMSA with sequencing).

The other results are listed elsewhere or left out. For some of these results: At the low end of the ranking the order means little.

For the sequence “GATGGACCCTATACGCGGCAGAAAAGAATTTTTAAAAGCTGTTACGAGGTGGGGAAAAGCCAGTTGCAGAACAATACATACAGTATGATTCTAATTATGTGAAAAGAAACCACCCACGCTCTAAGGGGTGTGCACATGAATGATATGAGTCAGAGGATGTGTGAAAAGAGGTTGACAGTGTCTGCTCTATAAGCTTTGATTTTTAAGAATTGCCAGTCGGATAGTGTTCC”, the binding signal (log2 relative supershift) is 1.33 in experiment [1], 0.0689 in experiment [2], 0.844 in experiment [3] and -0.205 in experiment [4].

As to “GATGGACCCTATACGCGGCCTCACACTGCTAATAAAGACACACCCCAGACTGGGTAATGTTTAAAGGAAAGAGGTCAAATGTACTCACAGTTCCACGTGGCTGGGGAGGACTCACAAGTGGTGGAAGGCAAAGGAGAAGCCAAGGCGTGTTGTACATGGCAGCAAGGCAATCATACAAGGGAACTTCCATTTATAAAACCATAAGATCTCTGCCAGTCGGATAGTGTTCC”, the binding signal (log2 relative supershift) in experiment [1] is 2.25; in experiment [2] it was 0.0406; in experiment [3], 0.925; in experiment [4] it was -0.0755.

As to “GATGGACCCTATACGCGGCTTCCATTGCCACTCCTTCCTAGAGTAAAGGAACTGCTAATCCTCCCTCTGACTCATAACTAAAGCCAGCTTTCAAAGTGGTGAGGTTGCAGAGCTTGAGGGAGGGGCCTCATGGTCCCAAATACCTACTCCACTTGTTTGCTACTCCAAGGAATTTGTATACAGTCAGTTAATATTATTATCACTCACTCCTGCCAGTCGGATAGTGTTCC”, the binding signal (log2 relative supershift) in experiment [1] is 2.19; in experiment [2], 0.00633; in experiment [3], 0.946; in experiment [4], -0.235.

As to “GATGGACCCTATACGCGGCTTTGTGATCTTGAGGAGGATAATAATGCATTCAATGATGAAACATAAGGAGGCAGCCTGAGAGGCGGATTAAAGGGAAGGGCTTCGAATGAGAATGCTACACACAAGCCCAAATCTGCTACTTAGCATATGTTTGTGGGCAAGTTACTGTTCCTCTCTGCTATTACCCTTTATCCCATGCAAAATTGAGATTGCCAGTCGGATAGTGTTCC”, the binding signal (log2 relative supershift) is 0.9 in experiment [1], 0.609 in experiment [2], 1.41 in experiment [3] and -0.28 in experiment [4].

For the sequence “GATGGACCCTATACGCGGCACACACATATTGATACAGGCACACATGCATATTCAAACAGGCACACACAGGTGTATTCACAAAGGCACACATATGCACATACATTCACAGACAGGCACACACATTCACACAGGCATACACATGCAGACACACATTCACATATGCACACACAGGCACACACACGCATATGCACACAGACACACATATTCATATGCCAGTCGGATAGTGTTCC”, the binding signal (log2 relative supershift) in experiment [1] was 0.678; in experiment [2], 0.795; in experiment [5], -1.67.

As for “GATGGACCCTATACGCGGCAAGTTGTTGGGAGGCTTCACTACCGTTCCTCTGAGTGGCTGCTGCGGCCTCCCCTCCCCCTGCGCCGTCGCGGGGAGCGCGCATAAGGCGCGCACTCGGGCTCGCCGGGACTCGCGCTCTCCCGGGACTGGCTCCCCTCTCTGCAAGCCGGGACTTGCCGCCGGTGTCCCTGAGGGCTCGCAGCTGTAACTTGCCAGTCGGATAGTGTTCC”, the binding signal (log2 relative supershift) in experiment [1] was 0.72; in experiment [2], 0.437; in experiment [6], 0.017; in experiment [5], -0.931.

As to “GATGGACCCTATACGCGGCCTGACCTTGGGGCATGTGCAGTGTGGACTGTGTGTGCGTGTGCATACGCACATACATTTGTACGTTTGTGGGATACTGGTGGGTGCACACGCTTTGTATGTGTGGACGTACACGTGTCTGTGTGTGGGGTGAGTATGCACGTGTGTTTACACATATGGGGTTTGGGTGTGTGCGTGTTCATGCATATGATGTGCCAGTCGGATAGTGTTCC”, the binding signal (log2 relative supershift) was 2.05 in experiment [1], 0.365 in experiment [2], 1.23 in experiment [6] and -0.289 in experiment [5].

Take “GATGGACCCTATACGCGGCTAATTATTCAAGAGCGGGGTGAAAGGAACGGAGTCTAGACTGAGGTCCAGCGGGCAAGTTCCGACAGGCTCCAGGGCCTTCTTTCCTGCCCTGCATCACCAGTGCAGTCAAAGGGCTCTGCATGGCCTTGAGACAAATTCTGTACAATGAGTTCAGCTGGGCGTGGCAGCAATAGCTTTAAACAACCTTTCTGCCAGTCGGATAGTGTTCC”: the binding signal (log2 relative supershift) in experiment [1] was 2.6; in experiment [2], 1.58; in experiment [3], 0.627; in experiment [4], -0.184.

Regarding “GATGGACCCTATACGCGGCCATTTTGCAGTTAAATATGTTTTACCATCTACCACAGGCAATCATCTTCAATAAAAAGCAATGGTTATGCACATGGGAGGGGCTTCAGGGCTCCCACCCGAAAGGCATTAGCTACCAAGGATGTGGGGTGTTTGTGGTGTGTGTGTAGGGGTGGAGGGATAGAAACGTCTGGAGGCACGGGGGTGGAGGGGTGCCAGTCGGATAGTGTTCC”, the binding signal (log2 relative supershift) in experiment [1] is 2.32; in experiment [2], 0.651; in experiment [6], 0.372; in experiment [5], -0.668.

For “GATGGACCCTATACGCGGCACCCACAATCATGGCAGTAGCTGGAGATAGCAGGAAGGAAAGACAATGTGTTGGCCAAGGGGTACCTCACTAACTTTCCATCCCACGACTCATCCACCCTTTATCCACCCATCCATCTATCCACCCACTCATTCATTCATTTGCTTATTTATTGGCTCATCTCTCCTTTTGTCTACCCACTCATTCAACTATGCCAGTCGGATAGTGTTCC”, the binding signal (log2 relative supershift) in experiment [1] is 1.55; in experiment [3] it was 2.02; in experiment [6], 0.17; in experiment [7] it was -0.0949.

“GATGGACCCTATACGCGGCATCTGGATTCAAATCCTGGCCAGGCACAGCGGCTCATGCCTGTCATCTCAACAGTTTAGGAGGTCAAAGCGTGAGGGCAAGAGTTCAAGATCAGCCTGGGGAACACTGTGACACCCCGCCTGCACAAAAAAATTTAGCCGGGCATGATGGCACACGCCTATAGTCCTAGTTATGCAGGAGAACTGCTTCAGTGCCAGTCGGATAGTGTTCC”: the binding signal (log2 relative supershift) in experiment [1] was 1.45; in experiment [3] it was 0.679; in experiment [6], 0.0936; in experiment [7] it was -0.225.

As to “GATGGACCCTATACGCGGCGGGGGTGGGGTGGGGTGCCGTGCAGGGAGCCAAAGGCACTTAGATGGGCTTGCTGGGCCGAGGGTGGGTGGGCCAGTCACTGGGCTGGGGGTGGCTAAGGAACACAGACCCACCAGCCAGCCCTTCTTGGGAAGCTCTGGGGGGTTTCTGCTCAGACCTGCACTCCCCCGAGTGGAACCCCGAGTTCTGCCTGCCAGTCGGATAGTGTTCC”, the figures for the binding signal (log2 relative supershift) in experiment [1], in experiment [2] and in experiment [6] were 1.16, 1.19 and 0.0761, respectively.
